From paper PMC3154509
No constants are given. Whether binding was seen depends on the method and setting. In cells and extracts the contact can be indirect. Some results given as binding are weak or reduced against the parent protein; the word gives no strength. Tags and fused reporters may be left off the sequences shown.

Biological target: Jak2 tyrosine kinase (endogenous, M-MOK cells) (human (endogenous in M-MOK)), O60674
Test: co-IP; M-MOK cells treated with purified WT or mutant Lnk R8, stimulated with TPO, washed and lysed (1% NP-40, 150 mM NaCl, pH 8.0); anti-Jak2 immunoprecipitation, blot with anti-pentaHis; only the binder purified
Conditions: remark: other sources report otherwise

B1: WT Lnk R8 fusion protein (human wild-type Lnk-6×His-R8), Q9UQQ2 1-575 (protein)
chain: MNGPALQPSSPSSAPSASPAAAPRGWSEFCELHAVAAARELARQYWLFAREHPQHAPLRAELVSLQFTDLFQRYFCREVRDGRAPGRDYRDTGRGPPAKAEASPEPGPGPAAPGLPKARSSEELAPPRPPGPCSFQHFRRSLRHIFRRRSAGELPAAHTAAAPGTPGEAAETPARPGLAKKFLPWSLAREPPPEALKEAVLRYSLADEASMDSGARWQRGRLALRRAPGPDGPDRVLELFDPPKSSRPKLQAACSSIQEVRWCTRLEMPDNLYTFVLKVKDRTDIIFEVGDEQQLNSWMAELSECTGRGLESTEAEMHIPSALEPSTSSSPRGSTDSLNQGASPGGLLDPACQKTDHFLSCYPWFHGPISRVKAAQLVQLQGPDAHGVFLVRQSETRRGEYVLTFNFQGIAKHLRLSLTERGQCRVQHLHFPSVVDMLHHFQRSPIPLECGAACDVRLSSYVVVVSQPPGSCNTVLFPFSLPHWDSESLPHWGSELGLPHLSSSGCPRGLSPEGLPGRSSPPEQIFHLVPSPEELANSLQHLEHEPVNRARDSDYEMDSSSRSHLRAIDNQYTPL
For B1, the binding was “binds”.
